Results as given in article PMC6328613.
No constants are given. Whether binding was seen depends on the method and setting. Binding can be weak; no strength is given. For some of these results: Where a sequence is shown, tags or fusion partners need not be part of it. For some of these results: Binding seen in cells or lysates may run through a third protein. Each block holds one molecule with its values, some of them ahead of it.

Tests used:
[1] = target: T1, Scyl1 (yeast two-hybrid fusion) (UniProt Q96KG9); assay: two-hybrid; Matchmaker Gold system, yeast strain Y2HGold; AD prey and BD bait co-transformed; growth on quadruple drop-out (SD/-Ade/-His/-Leu/-Trp) plates at 30 °C
T1 sequence: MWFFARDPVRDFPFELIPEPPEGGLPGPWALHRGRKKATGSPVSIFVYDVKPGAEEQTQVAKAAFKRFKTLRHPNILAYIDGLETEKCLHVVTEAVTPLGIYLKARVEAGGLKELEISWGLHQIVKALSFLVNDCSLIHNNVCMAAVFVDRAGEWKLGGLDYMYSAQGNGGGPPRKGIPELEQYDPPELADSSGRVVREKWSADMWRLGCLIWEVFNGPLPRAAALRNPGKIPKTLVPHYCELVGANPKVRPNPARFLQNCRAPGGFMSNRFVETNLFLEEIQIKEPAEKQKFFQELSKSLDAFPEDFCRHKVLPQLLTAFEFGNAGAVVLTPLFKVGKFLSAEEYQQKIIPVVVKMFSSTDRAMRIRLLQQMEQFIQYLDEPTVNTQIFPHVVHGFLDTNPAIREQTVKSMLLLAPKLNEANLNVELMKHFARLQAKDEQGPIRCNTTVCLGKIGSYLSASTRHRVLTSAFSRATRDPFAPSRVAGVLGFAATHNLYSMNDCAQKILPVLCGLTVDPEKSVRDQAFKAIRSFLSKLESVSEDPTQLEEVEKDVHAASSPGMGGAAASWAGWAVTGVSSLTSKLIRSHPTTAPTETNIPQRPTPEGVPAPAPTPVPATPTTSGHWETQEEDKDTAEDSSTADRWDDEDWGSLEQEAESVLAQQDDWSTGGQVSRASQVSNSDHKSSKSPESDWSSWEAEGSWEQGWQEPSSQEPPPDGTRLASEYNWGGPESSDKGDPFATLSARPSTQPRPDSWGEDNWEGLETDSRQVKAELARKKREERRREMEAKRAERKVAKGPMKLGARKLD

[2] = target: T2, GST-Scyl1 (bait of Fig. 4b) (UniProt Q96KG9); assay: pull-down; GST-tagged bait proteins with lysates of RPE-1 cells expressing GFP-tagged GORAB variants; bound fractions blotted for GFP; only the target purified
T2 sequence: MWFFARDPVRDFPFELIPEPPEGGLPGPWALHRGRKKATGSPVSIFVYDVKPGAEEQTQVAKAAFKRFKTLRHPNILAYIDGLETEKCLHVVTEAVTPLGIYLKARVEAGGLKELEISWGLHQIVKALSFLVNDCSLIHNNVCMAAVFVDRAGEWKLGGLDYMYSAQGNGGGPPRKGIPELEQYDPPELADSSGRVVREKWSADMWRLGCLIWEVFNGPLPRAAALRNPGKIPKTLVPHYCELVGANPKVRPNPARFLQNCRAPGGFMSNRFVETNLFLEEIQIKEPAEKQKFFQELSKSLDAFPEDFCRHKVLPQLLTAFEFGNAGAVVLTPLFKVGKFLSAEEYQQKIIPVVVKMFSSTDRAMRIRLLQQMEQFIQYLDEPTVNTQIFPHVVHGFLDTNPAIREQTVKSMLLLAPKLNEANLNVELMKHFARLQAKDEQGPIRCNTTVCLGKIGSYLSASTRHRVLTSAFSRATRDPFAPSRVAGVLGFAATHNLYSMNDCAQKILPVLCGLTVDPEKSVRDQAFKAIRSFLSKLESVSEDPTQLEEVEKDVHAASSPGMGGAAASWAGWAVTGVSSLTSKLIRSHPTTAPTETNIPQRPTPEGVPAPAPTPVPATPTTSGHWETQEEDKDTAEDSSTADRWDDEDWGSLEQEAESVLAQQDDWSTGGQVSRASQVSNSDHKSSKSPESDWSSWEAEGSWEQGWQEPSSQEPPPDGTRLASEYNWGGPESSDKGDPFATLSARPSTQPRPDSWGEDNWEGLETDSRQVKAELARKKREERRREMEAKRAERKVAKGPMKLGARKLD

[3] = target: GORABK190del-mycFKBP (human); assay: mitochondrial relocation assay (fluorescence microscopy); HeLaM cells co-transfected with mito-FRB and GORAB-mycFKBP (K190del or wild type); 2.5 µg/mL nocodazole 2 h, then 1 µM rapamycin 3 h; in some samples 5 µg/mL BFA for 15 min; recruitment of co-expressed or endogenous proteins to mitochondria
[4] = target: GORAB-mycFKBP (wild type) (human); assay: as above
GST-GORAB (human) [5] = assay: pull-down; GST-tagged bait on glutathione resin with rat liver Golgi (RLG) membrane extract in HKMT buffer; western blotting; only the target purified
GST-GORAB (human) [6] = assay: pull-down; 40 µg GST-tagged bait on glutathione resin with 2-3 mg sHeLa cell lysate (endogenous proteins), HMNT buffer, 4 h at 4 °C; western blotting; only the target purified
[7] = target: GST-tagged GORAB fragment: N-terminal non-coil domain (human); assay: pull-down; direct binding: 20 µg purified GST-tagged bait on glutathione resin with 20 µg MBP-tagged Scyl1 in HMNT buffer with 100 µg/mL BSA, 4 h at 4 °C; Coomassie Blue staining; both purified
GST-GORAB (human) [8] = assay: as above

binding [3]: no binding | binding [4]: no binding
B1: GFP-Scyl2 (protein, UniProt Q6P3W7 1-929)
chain: MESMLNKLKSTVTKVTADVTSAVMGNPVTREFDVGRHIASGGNGLAWKIFNGTKKSTKQEVAVFVFDKKLIDKYQKFEKDQIIDSLKRGVQQLTRLRHPRLLTVQHPLEESRDCLAFCTEPVFASLANVLGNWENLPSPISPDIKDYKLYDVETKYGLLQVSEGLSFLHSSVKMVHGNITPENIILNKSGAWKIMGFDFCVSSTNPSEQEPKFPCKEWDPNLPSLCLPNPEYLAPEYILSVSCETASDMYSLGTVMYAVFNKGKPIFEVNKQDIYKSFSRQLDQLSRLGSSSLTNIPEEVREHVKLLLNVTPTVRPDADQMTKIPFFDDVGAVTLQYFDTLFQRDNLQKSQFFKGLPKVLPKLPKRVIVQRILPCLTSEFVNPDMVPFVLPNVLLIAEECTKEEYVKLILPELGPVFKQQEPIQILLIFLQKMDLLLTKTPPDEIKNSVLPMVYRALEAPSIQIQELCLNIIPTFANLIDYPSMKNALIPRIKNACLQTSSLAVRVNSLVCLGKILEYLDKWFVLDDILPFLQQIPSKEPAVLMGILGIYKCTFTHKKLGITKEQLAGKVLPHLIPLSIENNLNLNQFNSFISVIKEMLNRLESEHKTKLEQLHIMQEQQKSLDIGNQMNVSEEMKVTNIGNQQIDKVFNNIGADLLTGSESENKEDGLQNKHKRASLTLEEKQKLAKEQEQAQKLKSQQPLKPQVHTPVATVKQTKDLTDTLMDNMSSLTSLSVSTPKSSASSTFTSVPSMGIGMMFSTPTDNTKRNLTNGLNANMGFQTSGFNMPVNTNQNFYSSPSTVGVTKMTLGTPPTLPNFNALSVPPAGAKQTQQRPTDMSALNNLFGPQKPKVSMNQLSQQKPNQWLNQFVPPQGSPTMGSSVMGTQMNVIGQSAFGMQGNPFFNPQNFAQPPTTMTNSSSASNDLKDLFG

binding (GST-GORAB (human) [5]): binds
B3: Scyl1, endogenous in rat liver Golgi membranes (protein, UniProt Q5M9F8 1-807)
chain: MWFFARDPVRDFPFELNPEPPEGGPPGPWVLHRGRKKATGSAVSIFVYDVKPGAEEQTQVAKAAFKRLKTLRHPNILAYIDGLETEKCLHIVTEAVTPLGTYLKARAEAGGLKEQELSWGLHQIVKALSFLVNDCNLIHNNVCMAAVFVDKAGEWKLGGLDYMYSAQGNGGGPPNKGIPELEQYDPPELADSSSRAVKEKWSADMWRLGCLIWEVFNGSLPRATALRNPGKIPKSLVTHYCELVGANPKVRPNPARFLQNCRAPGGFMSNRFVETNLFLEEIQIKEPAEKQKFFQELSKSLDSFPEDFCRHKVLPQLLTAFEFGNAGAVVLTPLFKVGKFLSAEEYQQKIIPVVVKMFSSTDRAMRVRLLQQMEQFIQYLDEPTVNTQIFPHVTHGFLDTNPAIREQTVKSMLLLAPKLSETNLNVELLKHFARLQAKDDQGPIRCNTTVCLGKIGSYLSASTRHRVLTSAFSRATKDPFAPSRVAGVLGFAATHNLYSMDDCAHKILPVLCGLTVDPEKSVRDQAFKTIRSFLSKLESVSEDPTQLAEIEKDVHAASSPGTGGAAASWAGWAVTGVSSLTSKLIRTHPTPVPSEAAVPQRPVPEGDPAPAPAPASATPATSGHRETQEEDKDAAEDSATADRWDDEDWGSLEQEAESVLAQQDDWSTKGQGNRAGQVSHSDHKSLDSHWSSWEVEGSWDQGWQEPSSVEPPPEGTRLASEYNWGGAEPSDKGDPFAALSVRPSTQPRPDPDSWGEDNWEGLEAESRQVKAELARKKREERRREMEAKRAEKKATKGPMKLGARKLD

binding [7]: binds | binding (GST-GORAB (human) [8]): binds
B5: MBP-Scyl1 (protein, UniProt Q96KG9 1-808)
chain: MWFFARDPVRDFPFELIPEPPEGGLPGPWALHRGRKKATGSPVSIFVYDVKPGAEEQTQVAKAAFKRFKTLRHPNILAYIDGLETEKCLHVVTEAVTPLGIYLKARVEAGGLKELEISWGLHQIVKALSFLVNDCSLIHNNVCMAAVFVDRAGEWKLGGLDYMYSAQGNGGGPPRKGIPELEQYDPPELADSSGRVVREKWSADMWRLGCLIWEVFNGPLPRAAALRNPGKIPKTLVPHYCELVGANPKVRPNPARFLQNCRAPGGFMSNRFVETNLFLEEIQIKEPAEKQKFFQELSKSLDAFPEDFCRHKVLPQLLTAFEFGNAGAVVLTPLFKVGKFLSAEEYQQKIIPVVVKMFSSTDRAMRIRLLQQMEQFIQYLDEPTVNTQIFPHVVHGFLDTNPAIREQTVKSMLLLAPKLNEANLNVELMKHFARLQAKDEQGPIRCNTTVCLGKIGSYLSASTRHRVLTSAFSRATRDPFAPSRVAGVLGFAATHNLYSMNDCAQKILPVLCGLTVDPEKSVRDQAFKAIRSFLSKLESVSEDPTQLEEVEKDVHAASSPGMGGAAASWAGWAVTGVSSLTSKLIRSHPTTAPTETNIPQRPTPEGVPAPAPTPVPATPTTSGHWETQEEDKDTAEDSSTADRWDDEDWGSLEQEAESVLAQQDDWSTGGQVSRASQVSNSDHKSSKSPESDWSSWEAEGSWEQGWQEPSSQEPPPDGTRLASEYNWGGPESSDKGDPFATLSARPSTQPRPDSWGEDNWEGLETDSRQVKAELARKKREERRREMEAKRAERKVAKGPMKLGARKLD

Further lines, the molecule ahead of its results:

Molecule: GORAB (yeast two-hybrid fusion) (human)
binding [1]: binds

Molecule: GFP-GORAB K190del (human)
binding [2]: binds

Molecule: GFP-GORAB (wild type) (human)
binding [2]: binds

B2: GFP-tagged Scyl3 (protein, UniProt Q8IZE3 1-742)
chain: MGSENSALKSYTLREPPFTLPSGLAVYPAVLQDGKFASVFVYKRENEDKVNKAAKHLKTLRHPCLLRFLSCTVEADGIHLVTERVQPLEVALETLSSAEVCAGIYDILLALIFLHDRGHLTHNNVCLSSVFVSEDGHWKLGGMETVCKVSQATPEFLRSIQSIRDPASIPPEEMSPEFTTLPECHGHARDAFSFGTLVESLLTILNEQVSADVLSSFQQTLHSTLLNPIPKCRPALCTLLSHDFFRNDFLEVVNFLKSLTLKSEEEKTEFFKFLLDRVSCLSEELIASRLVPLLLNQLVFAEPVAVKSFLPYLLGPKKDHAQGETPCLLSPALFQSRVIPVLLQLFEVHEEHVRMVLLSHIEAYVEHFTQEQLKKVILPQVLLGLRDTSDSIVAITLHSLAVLVSLLGPEVVVGGERTKIFKRTAPSFTKNTDLSLEDSPMCVVCSHHSQISPILENPFSSIFPKCFFSGSTPINSKKHIQRDYYNTLLQTGDPFSQPIKFPINGLSDVKNTSEDSENFPSSSKKSEEWPDWSEPEEPENQTVNIQIWPREPCDDVKSQCTTLDVEESSWDDCEPSSLDTKVNPGGGITATKPVTSGEQKPIPALLSLTEESMPWKSSLPQKISLVQRGDDADQIEPPKVSSQERPLKVPSELGLGEEFTIQVKKKPVKDPEMDWFADMIPEIKPSAAFLILPELRTEMVPKKDDVSPVMQFSSKFAAAEITEGEAEGWEEEGELNWEDNNW
binding [3]: no binding | binding [4]: no binding

B4: Scyl1, endogenous in HeLa cells (protein, UniProt Q96KG9 1-808)
chain: MWFFARDPVRDFPFELIPEPPEGGLPGPWALHRGRKKATGSPVSIFVYDVKPGAEEQTQVAKAAFKRFKTLRHPNILAYIDGLETEKCLHVVTEAVTPLGIYLKARVEAGGLKELEISWGLHQIVKALSFLVNDCSLIHNNVCMAAVFVDRAGEWKLGGLDYMYSAQGNGGGPPRKGIPELEQYDPPELADSSGRVVREKWSADMWRLGCLIWEVFNGPLPRAAALRNPGKIPKTLVPHYCELVGANPKVRPNPARFLQNCRAPGGFMSNRFVETNLFLEEIQIKEPAEKQKFFQELSKSLDAFPEDFCRHKVLPQLLTAFEFGNAGAVVLTPLFKVGKFLSAEEYQQKIIPVVVKMFSSTDRAMRIRLLQQMEQFIQYLDEPTVNTQIFPHVVHGFLDTNPAIREQTVKSMLLLAPKLNEANLNVELMKHFARLQAKDEQGPIRCNTTVCLGKIGSYLSASTRHRVLTSAFSRATRDPFAPSRVAGVLGFAATHNLYSMNDCAQKILPVLCGLTVDPEKSVRDQAFKAIRSFLSKLESVSEDPTQLEEVEKDVHAASSPGMGGAAASWAGWAVTGVSSLTSKLIRSHPTTAPTETNIPQRPTPEGVPAPAPTPVPATPTTSGHWETQEEDKDTAEDSSTADRWDDEDWGSLEQEAESVLAQQDDWSTGGQVSRASQVSNSDHKSSKSPESDWSSWEAEGSWEQGWQEPSSQEPPPDGTRLASEYNWGGPESSDKGDPFATLSARPSTQPRPDSWGEDNWEGLETDSRQVKAELARKKREERRREMEAKRAERKVAKGPMKLGARKLD
binding (GST-GORAB (human) [6]): binds | binding [3]: binds | binding [4]: binds
